The other results are listed elsewhere or left out. Shown are side measurements of this screen, not its main read-out; they come without a call. The list favours compounds with an active or inconclusive main result. Potencies come from curve fits of mixed quality, noted in brackets.

The assay in a line: qHTS Assay for Identifying the Cell-Membrane Permeable IMPase Inhibitors. The following applies: CHO-M1 cells, IP1 accumulation, HTRF TR-FRET ratio; measured here: donor channel 620 nm AC50.
For orientation: AC50 means the concentration giving half of the maximal activity seen. On to `CCCCCCC1CC(CSc2ncn[nH]2)OC1=O` (configuration not stated), for which the AC50 is 1.58 µM [falling, partial curve].
On to `CCC1(C)Cc2c(sc3nc4n(c(=O)c23)CCS4)CO1` (configuration not stated), for which the AC50 was 1.41 µM [falling, partial curve, poor fit].
Consider `Cc1noc(C)c1S(=O)(=O)N1CCC(C(=O)N(C)Cc2ccccc2)CC1`, for which the AC50 was 3.16 µM [falling, full curve].
With `COc1cc(NS(=O)(=O)c2ccc(NS(=O)(=O)c3ccccc3)cc2)nc(OC)n1` the figure was 0.02 µM [rising, full curve, poor fit]; with `Cc1ccc(-n2c(C)cc(C(=O)COC(=O)C3=NNC(=O)CC3)c2C)cc1`, 12.6 µM [rising, single point]; with `CCn1c(SCC(=O)NC(C)c2ccccc2)nc2ccccc21` (configuration not stated), 0.1 µM [falling, full curve, poor fit].
With `CCC(C)(C)NC(=O)CN(C(=O)CNS(=O)(=O)c1ccccc1)c1ccccc1` the figure was 5.01 µM [falling, single point].
As to `CC(OC(=O)c1cc2sccc2n1C)C(=O)NCc1ccc2c(c1)OCO2` (configuration not stated), the AC50 is 25.1 µM [falling, single point].
With `CN(C)CCCN1C(=O)C(O)=C(C(=O)c2cc3ccccc3o2)C1c1ccccc1` (configuration not stated) the figure was 15.8 µM [rising, single point]; with `COCc1cc(C)nc2sc(C(=O)OC(C)C)c(N)c12`, 15.8 µM [rising, single point]; with `Cc1ccn2cc(CCNS(=O)(=O)c3ccc(F)c(C(F)(F)F)c3)nc2c1`, 0.158 µM [falling, full curve, poor fit].
In the case of `CCn1c2ccccc2c2cc(NC(=O)N3CCOCC3)ccc21`, the AC50 is 0.282 µM [falling, full curve, poor fit].
`Cc1ccc(C)c(N2CCN(Cc3nnc(-c4ccc5c(c4)OCO5)o3)CC2)c1`: the AC50 was 5.62 µM [falling, full curve].
Under `COc1ccc(S(=O)(=O)NCCSc2ccc(Cl)cc2)cc1OC` stands 1 µM [falling, single point].
With `O=C(CSc1nnc(NC(=O)CN2CCOCC2)s1)Nc1ccccc1` the figure was 6.31 µM [falling, single point]; with `CC(OC(=O)c1snc(C(=O)NC2CCCCC2)c1N)C(=O)NC1CCCCC1` (configuration not stated), 15.8 µM [falling, single point]; with `Cc1ccn2c(/C=N/OCc3ccc(F)cc3)c(-c3ccc(Cl)cc3)nc2c1`, 2 µM [rising, full curve].
With `CCOC(=O)CSc1nc2ccccc2n1CC(=O)N(C(C)C)C(C)C` the figure was 5.01 µM [rising, full curve, poor fit]; with `Cc1cccc(Oc2ncnc3onc(C)c23)c1C`, 3.16 µM [falling, partial curve, poor fit].
`CC(C)(C)n1ncc2c(=O)n(CC(=O)NCc3ccccc3)cnc21`: the AC50 was 15.8 µM [falling, single point].
With `COc1ccc(S(=O)(=O)NCCCO)cc1-c1nnc2c3ccccc3c(C)nn12` the figure was 0.0126 µM [falling, full curve, poor fit].
With `O=C(Cn1nnc(-c2ccc(Cl)cc2)n1)NC1CCN(Cc2ccccc2)CC1` the figure was 0.398 µM [falling, full curve, poor fit]; with `O=c1oc(-c2ccccc2)nc2ccsc12`, 6.31 µM [falling, partial curve, poor fit].
As for `CCOC(=O)c1nc(Nc2ccc(C(C)=O)cc2)c2ccccc2n1`, the AC50 is 25.1 µM [rising, single point].
With `CCOc1ccc(/C(O)=C2/C(=O)C(=O)N(CCOCCO)C2c2cccnc2)cc1` (configuration not stated) the figure was 12.6 µM [rising, partial curve]; with `CCCCNC(=O)CN1C(=O)C(CC)Oc2ccc(Cl)cc21` (configuration not stated), 3.16 µM [rising, full curve]; with `CCn1cc(C(=O)NCc2ccco2)c(=O)c2cc(S(=O)(=O)N3CCc4ccccc4C3)ccc21`, 0.158 µM [rising, full curve, poor fit].
Under `CCCC1(c2ccccc2)NC(=O)N(CC(=O)Nc2sc(-c3ccccc3)cc2C(=O)OCC)C1=O` (configuration not stated) stands 12.6 µM [rising, single point].
With `COc1cccc(Cn2c(Oc3cc(C)cc(C)c3)nc3c2c(=O)n(C)c(=O)n3C)c1` the figure was 31.6 µM [rising, single point].
For `c1ccc(C(c2ccccc2)c2nc(-c3cccnc3)no2)cc1`, the AC50 is 12.6 µM [rising, single point].
`CCOc1ccc(NC(=O)CSc2nc3ccccc3c(=O)n2CCCC(=O)N2CCCC2)cc1`: the AC50 was 3.16 µM [rising, full curve].
With `COc1ccc(NC(=O)CCCSc2nc(-c3ccco3)cc(C(F)(F)F)n2)cc1OC` the figure was 0.126 µM [rising, partial curve]; with `COc1cccc(-c2nc(S(=O)(=O)c3ccc(Cl)cc3)c(NCc3ccccc3)o2)c1`, 1.41 µM [falling, full curve, poor fit].
Under `CC(=O)c1sc(Nc2ccccn2)nc1C` stands 12.6 µM [rising, partial curve]; under `O=c1[nH]c(NCCCO)nc2c1C1(CCCC1)Cc1ccccc1-2`, 31.6 µM [rising, single point]; under `CCn1c(N2CCN(C(=O)NC3CCCCC3)CC2)nc2ccccc21`, 31.6 µM [falling, single point].
As for `Cc1cc(C)n(C2=NS(=O)(=O)c3ccccc32)n1`, the AC50 was 6.31 µM [rising, single point].
With `COc1ccccc1NC(=O)C1=C(C)Nc2nc(CCCO)nn2C1c1cccc(O)c1` (configuration not stated) the figure was 11.2 µM [falling, partial curve]; with `COc1ccc(-c2cc(C)nc3nc(N)nn23)cc1`, 0.0631 µM [falling, full curve]; with `CCCOc1cc(C)nc(-c2ccccc2O)n1`, 0.00398 µM [falling, full curve, poor fit].
With `O=C1CCCc2nn(-c3ccccc3)c(-c3ccncc3)c21` the figure was 0.00398 µM [falling, full curve, poor fit]; with `O=C(NCCCc1ccccc1)Nc1cccc(Cl)c1`, 11.2 µM [falling, single point].
